PubChem BioAssay AID504764 | Drosophila RNAi Screening Center – 2011

- Assay: 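Genes whose knock-down alters Notch-dependent transcription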 (primary screen)
- Cells: Drosophila Kc167 cells
- Reagents: long dsRNA against Drosophila genes
- Duration: about 5 days (4 days dsRNA, then 24 h after transfection)
- Challenge: transfection of constitutively active membrane-tethered Notch lacking the extracellular domain, read 24 h later
- Measurement: 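Light from a Notch-responsive E(spl)m3 luciferase reporter under active Notch, with control-promoter and no-Notch reporter wells to normalise; raw counts from paired wells a and b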
- Reading the numbers: induced reporter light, run 1, well a and induced reporter light, run 1, well b: higher = more light from the Notch target reporter with active Notch; control promoter light, run 1, well a and control promoter light, run 1, well b: higher = more light from the viral control promoter (cell number, transfection, viability); uninduced reporter light, run 1, well a: higher = more light from the Notch target reporter without active Notch
- Call rule: 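Hit if the duplicate-averaged log2 ratio of induced to control-promoter light gives a plate-wise z beyond ±2, or induced to uninduced beyond ±1.8; weak-control or discordant-duplicate wells dropped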
- Calls: active = modifier hit (raised or lowered Notch signal); inactive = not a hit
The deposit covers about 22,000 reagents; this is an unselected part of those that have a named target and a result. Of all reagents, 403 (1.9%) were called active. 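Unnormalised raw counts per well; ratio z-scores behind the hit calls and whether each hit raises or lowers signal are not deposited.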 Entries without a mark were called inactive. The numbers tell different reagents against one gene apart. No sequences are given here. The record does not give: the amount of reagent.

Silencing of trk resulted in: induced reporter light, run 1, well a = 1.24e5; induced reporter light, run 1, well b = 1.26e5; control promoter light, run 1, well a = 71640; control promoter light, run 1, well b = 90575; uninduced reporter light, run 1, well a = 15220.
E(spl)m2-BFM gave induced reporter light, run 1, well a = 15680; induced reporter light, run 1, well b = 14205; control promoter light, run 1, well a = 13075; control promoter light, run 1, well b = 12725; uninduced reporter light, run 1, well a = 4070.
Ugt50B3 #1 scored induced reporter light, run 1, well a = 43450; induced reporter light, run 1, well b = 58945; control promoter light, run 1, well a = 71280; control promoter light, run 1, well b = 68790; uninduced reporter light, run 1, well a = 4015.
Ugt50B3 #2 gave induced reporter light, run 1, well a = 72480; induced reporter light, run 1, well b = 83995; control promoter light, run 1, well a = 1.19e5; control promoter light, run 1, well b = 1.17e5; uninduced reporter light, run 1, well a = 4115.
For CG2955, the values are induced reporter light, run 1, well a = 1.90e5; induced reporter light, run 1, well b = 1.95e5; control promoter light, run 1, well a = 1.46e5; control promoter light, run 1, well b = 1.90e5; uninduced reporter light, run 1, well a = 16580.
Silencing of CG10508 #1 resulted in: induced reporter light, run 1, well a = 1.47e5; induced reporter light, run 1, well b = 1.27e5; control promoter light, run 1, well a = 1.01e5; control promoter light, run 1, well b = 1.21e5; uninduced reporter light, run 1, well a = 8620.
For CG10508 #2 the deposit lists induced reporter light, run 1, well a = 1.16e5; induced reporter light, run 1, well b = 79160; control promoter light, run 1, well a = 87355; control promoter light, run 1, well b = 66535; uninduced reporter light, run 1, well a = 7605.
Against CG13698, the values are induced reporter light, run 1, well a = 1.05e5; induced reporter light, run 1, well b = 1.42e5; control promoter light, run 1, well a = 80530; control promoter light, run 1, well b = 86180; uninduced reporter light, run 1, well a = 9555.
Against CG6040 the deposit lists induced reporter light, run 1, well a = 1.23e5; induced reporter light, run 1, well b = 1.76e5; control promoter light, run 1, well a = 1.97e5; control promoter light, run 1, well b = 1.53e5; uninduced reporter light, run 1, well a = 14295.
For SMC3 the deposit lists induced reporter light, run 1, well a = 22688; induced reporter light, run 1, well b = 32845; control promoter light, run 1, well a = 25825; control promoter light, run 1, well b = 19092; uninduced reporter light, run 1, well a = 3095.
CG3699 #1 showed induced reporter light, run 1, well a = 1.33e5; induced reporter light, run 1, well b = 1.26e5; control promoter light, run 1, well a = 1.95e5; control promoter light, run 1, well b = 2.17e5; uninduced reporter light, run 1, well a = 8195.
Knock-down of CG3699 #2 resulted in: induced reporter light, run 1, well a = 53590; induced reporter light, run 1, well b = 48930; control promoter light, run 1, well a = 86155; control promoter light, run 1, well b = 78525; uninduced reporter light, run 1, well a = 5095.
For CG7065 the deposit lists induced reporter light, run 1, well a = 1.37e5; induced reporter light, run 1, well b = 1.09e5; control promoter light, run 1, well a = 1.50e5; control promoter light, run 1, well b = 1.51e5; uninduced reporter light, run 1, well a = 15210.
Silencing of Wnt5 came out at: induced reporter light, run 1, well a = 84445; induced reporter light, run 1, well b = 88215; control promoter light, run 1, well a = 1.01e5; control promoter light, run 1, well b = 84165; uninduced reporter light, run 1, well a = 10990.
CG32533 #1 scored induced reporter light, run 1, well a = 1.23e5; induced reporter light, run 1, well b = 1.12e5; control promoter light, run 1, well a = 92125; control promoter light, run 1, well b = 85650; uninduced reporter light, run 1, well a = 8790.
After knock-down of CG32533 #2, the record shows induced reporter light, run 1, well a = 76875; induced reporter light, run 1, well b = 88275; control promoter light, run 1, well a = 95770; control promoter light, run 1, well b = 1.27e5; uninduced reporter light, run 1, well a = 8875.
With knock-down of CG10286, the record shows induced reporter light, run 1, well a = 1.33e5; induced reporter light, run 1, well b = 1.02e5; control promoter light, run 1, well a = 86135; control promoter light, run 1, well b = 74710; uninduced reporter light, run 1, well a = 9575.
For CG5050 the deposit lists induced reporter light, run 1, well a = 1.28e5; induced reporter light, run 1, well b = 1.22e5; control promoter light, run 1, well a = 1.35e5; control promoter light, run 1, well b = 1.29e5; uninduced reporter light, run 1, well a = 10955.
